Measurements reported in PubChem BioAssay AID602196 (INSERM, 2012).

Screen: 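Knock-downs that protect lung cancer cells from cisplatin or sensitise them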
Cell system: human A549 lung cancer cells
Reagent: siRNA pair against human genes
Timing: 48 h transfection before cisplatin; time from cisplatin to read-out not stated
Challenge: cisplatin at a dose killing half of control-siRNA cells; exact dose and duration not given
Measurement: 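Shift in cisplatin death relative to control siRNA, from -50 (all cells die) to +50 (no cells die); siRNAs harmful on their own scored 0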
Scale: two-siRNA summed score (-2 to +2): higher = both siRNAs protect from cisplatin killing; -2 means both sensitise
Call rule: 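siRNAs harmful alone (LDH or WST-1) get 0; others get +1 for less and -1 for more cisplatin killing; genes are active when the two siRNAs give the same sign, summing to ±2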
Meaning of the calls: active = both siRNAs shift cisplatin killing the same way; inactive = no consistent shift, or siRNA harmful alone
This is an unselected part of about 23,000 deposited reagents. 455 of them (2%) were called active. 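Active includes both protection and sensitisation; some change values fall well beyond the stated -50 to +50 range.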 Not all columns of the deposit are shown. No sequences are given here. The record does not give: the amount of reagent.

| target | two-siRNA summed score (-2 to +2) | Outcome |
| --- | --- | --- |
| NXN | 1 | inactive |
| LOC390121 | 1 | inactive |
| SYNGR1 | 0 | inactive |
| ATOSA | 0 | inactive |
| MMP15 | 0 | inactive |
| LOC440133 | 0 | inactive |
| LOC389188 | 0 | inactive |
| HLA-E | -1 | inactive |
| LOC440035 | 2 | active |
| LOC389628 | 0 | inactive |
| CDKN2C | 0 | inactive |
| TEDC2 | 0 | inactive |
| GNPTG | 0 | inactive |
| LOC441634 | 1 | inactive |
| MAL2 | 0 | inactive |
| RNF144A | -1 | inactive |
| CDX2 | 0 | inactive |
| LOC440119 | 0 | inactive |
| KIF1B | 0 | inactive |
| FNDC7 | 0 | inactive |
| LOC146713 | 0 | inactive |
| LOC442519 | 1 | inactive |
| TRIM72 | 0 | inactive |
| MGAT4C | 1 | inactive |
| LINC01341 | 0 | inactive |
| LOC442207 | 0 | inactive |
| LOC402677 | 0 | inactive |
| SVOPL | 0 | inactive |
| LOC440705 | 0 | inactive |
| LOC157813 | 0 | inactive |
| TMC2 | 0 | inactive |
| H2AC11 | 1 | inactive |
| DUSP29 | 0 | inactive |
| RDH13 | 1 | inactive |
| ATP6V0B | -1 | inactive |
| LOC442115 | 1 | inactive |
| CTH | 0 | inactive |
| LOC400055 | 1 | inactive |
| LOC441251 | 0 | inactive |

Look-ups from above.
LOC441634, two-siRNA summed score (-2 to +2) → 1
LOC146713, two-siRNA summed score (-2 to +2) → 0
